Measurements taken from the supplement of paper PMC5407854, “Inhibitor of ppGalNAc-T3-mediated O-glycosylation blocks cancer cell invasiveness and lowers FGF23 levels” (eLife, 2017).
The other results are listed elsewhere or left out. Most values lie at the level of the controls, where differences are scatter.

Each molecule was assayed on ppGalNAc-T3 sensor (assay: T3 sensor activation Q score (MG/GFP ratio z-score vs DMSO controls) (SD units); higher = more sensor activation (inhibition of ppGalNAc-T3 glycosylation)). Details: HEK293 sensor cells; 10 µM; 6 h.
Experimental: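 Cells were treated with compound at 10 uM for 6 h, then MG/GFP ratio was read by flow cytometry (10,000 cells per well, duplicate wells). Q = (R - R_neg)/SD_neg relative to DMSO vehicle controls; the signal rises when the glycosyltransferase is inhibited.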

SMILES | T3 sensor activation Q score
COc1ccc(CN2CCN(C)CC2)c(OC)c1 | -0.34
CCc1ccc(CN2CCN(c3ccccc3F)CC2)cc1 | 0.665
O=C(NC(=O)c1c(F)cccc1F)Nc1ccc(Cl)cc1 | -1.39
NCCc1nc(N)n[nH]1 | 1.6
CC(=O)c1ccc(N2CCN(Cc3cccc(F)c3)CC2)cc1 | -0.295
Cc1ccccc1CN1CCN(CCO)CC1 | -0.565
O=[N+]([O-])c1ccccc1CN1CCN(c2ccccc2)CC1 | -0.525
COc1ccc(N2CCN(Cc3cccc(Cl)c3Cl)CC2)cc1 | 0.175
CCc1ccc(C(=O)CCN(C)C)cc1 | -0.345
CCN1CCN(Cc2ccc([N+](=O)[O-])cc2)CC1 | -0.045
COc1ccccc1N1CCN(Cc2cc(F)ccc2F)CC1 | 0.265
Cc1ccccc1CN1CCN(Cc2ccc3c(c2)OCO3)CC1 | -0.49
CCOc1ccc(CN2CCN(c3ccccc3C)CC2)cc1 | -0.15
COc1ccc(OC)c(CN2CCN(C)CC2)c1 | 0.35
COc1ccc(Br)cc1CN1CCN(C)CC1 | 0.3
COc1cc(CN2CCN(Cc3ccccc3)CC2)cc(OC)c1 | 0.13
COc1ccccc1N1CCN(Cc2ccccc2C)CC1 | 0.205
COc1ccc(CN2CCN(c3ccccc3)CC2)c(OC)c1 | -0.335
OCCN1CCN(Cc2cccc(F)c2)CC1 | -0.315
CN1CCN(Cc2cccc(Cl)c2)CC1 | 0.15
COc1ccc(OC)c(CN2CCN(c3ccc(Cl)cc3)CC2)c1 | 0.46
c1ccc(CN2CCN(Cc3ccc4c(c3)OCO4)CC2)cc1 | -0.655
C/C=C(\C)CN(C)CCc1ccccn1 | 0.28
O=[N+]([O-])c1cccc(CN2CCN(c3ccccc3)CC2)c1 | -0.2

Some of the entries so far, in CSV form.
SMILES,T3 sensor activation Q score
COc1ccc(N2CCN(Cc3cccc(Cl)c3Cl)CC2)cc1,0.175
Cc1ccccc1CN1CCN(Cc2ccc3c(c2)OCO3)CC1,-0.49
